{"source": "PubChem BioAssay AID1259425 (University of Nebraska Medical Center, 2018)", "purpose": "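Compare each knockdown with KSR1 silencing using changes in marker transcripts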 (primary screen)", "system": "HCT116 human colon cancer cells", "knock-down reagent": "siRNA pool against human genes, 50 nM siRNA", "measurement": "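After 50 nM siRNA pool, branched-DNA assay measures six marker transcripts per well, minus blank, normalised to the geometric mean of two housekeeping transcripts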", "direction": "BNIP3L mRNA: higher = more BNIP3L transcript after knockdown", "note": "The whole screen tested about 14,000 reagents; shown is a part drawn at random. Some reagents were tested in more than one well and are listed for each. Further read-outs or replicates are left out here. Not given: the time to read-out."}
{"gene knocked down": "SCCPDH", "PubChem SID": "SID363999787", "BNIP3L mRNA, set 1": 0.111}
{"gene knocked down": "PID1", "PubChem SID": "SID364000656", "BNIP3L mRNA, set 1": 0.153}
{"gene knocked down": "JUN", "PubChem SID": "SID363993428", "BNIP3L mRNA, set 1": 0.114}
{"gene knocked down": "PPP1R12B", "PubChem SID": "SID363993654", "BNIP3L mRNA, set 1": 0.126}
{"gene knocked down": "NBR1", "PubChem SID": "SID363996768", "BNIP3L mRNA, set 1": 0.109}
{"gene knocked down": "ERG28", "PubChem SID": "SID363997876", "BNIP3L mRNA, set 1": 0.0844}
{"gene knocked down": "ASIC5", "PubChem SID": "SID364000300", "BNIP3L mRNA, set 1": 0.0957}
{"gene knocked down": "FDX1", "PubChem SID": "SID363995119", "BNIP3L mRNA, set 1": 0.153}
{"gene knocked down": "TSPY1", "PubChem SID": "SID363994425", "BNIP3L mRNA, set 1": 0.0558}
{"gene knocked down": "RTN4IP1", "PubChem SID": "SID364004142", "BNIP3L mRNA, set 1": 0.204}
{"gene knocked down": "MAN2A1", "PubChem SID": "SID363993552", "BNIP3L mRNA, set 1": 0.138}
{"gene knocked down": "STAG2", "PubChem SID": "SID363997393", "BNIP3L mRNA, set 1": 0.0752}
{"gene knocked down": "MIB1", "PubChem SID": "SID364001820", "BNIP3L mRNA, set 1": 0.0602}
{"gene knocked down": "DAPP1", "PubChem SID": "SID363998817", "BNIP3L mRNA, set 1": 0.118}
{"gene knocked down": "AGTR2", "PubChem SID": "SID363991985", "BNIP3L mRNA, set 1": 0.0884}
{"gene knocked down": "AGTR2", "PubChem SID": "SID363991985", "BNIP3L mRNA, set 1": 0.081}
{"gene knocked down": "EPB41L4B", "PubChem SID": "SID364001061", "BNIP3L mRNA, set 1": 0.116}
{"gene knocked down": "SENP6", "PubChem SID": "SID363999580", "BNIP3L mRNA, set 1": 0.0797}

Laid out differently: entries from further up
{"gene knocked down":"JUN","PubChem SID":"SID363993428","BNIP3L mRNA, set 1":0.114}
{"gene knocked down":"PPP1R12B","PubChem SID":"SID363993654","BNIP3L mRNA, set 1":0.126}

Additional records:
{"gene knocked down": "PDHA2", "PubChem SID": "SID363996300", "BNIP3L mRNA, set 1": 0.088}
{"gene knocked down": "CCR9", "PubChem SID": "SID363997429", "BNIP3L mRNA, set 1": 0.123}
{"gene knocked down": "FAM135B", "PubChem SID": "SID363999714", "BNIP3L mRNA, set 1": 0.093}
{"gene knocked down": "SYNC", "PubChem SID": "SID364003438", "BNIP3L mRNA, set 1": 0.0813}
{"gene knocked down": "S100A9", "PubChem SID": "SID363994116", "BNIP3L mRNA, set 1": 0.0402}
{"gene knocked down": "CTNNBIP1", "PubChem SID": "SID364001593", "BNIP3L mRNA, set 1": 0.116}
{"gene knocked down": "HMGN2", "PubChem SID": "SID363996418", "BNIP3L mRNA, set 1": 0.125}
{"gene knocked down": "CPSF3", "PubChem SID": "SID363999949", "BNIP3L mRNA, set 1": 0.193}
{"gene knocked down": "B9D2", "PubChem SID": "SID364003369", "BNIP3L mRNA, set 1": 0.244}
{"gene knocked down": "BDKRB2", "PubChem SID": "SID363991940", "BNIP3L mRNA, set 1": 0.0776}
{"gene knocked down": "BDKRB2", "PubChem SID": "SID363991940", "BNIP3L mRNA, set 1": 0.134}
{"gene knocked down": "CAMK2D", "PubChem SID": "SID363992506", "BNIP3L mRNA, set 1": 0.133}
{"gene knocked down": "ZNF346", "PubChem SID": "SID363998196", "BNIP3L mRNA, set 1": 0.0915}
{"gene knocked down": "SLC25A38", "PubChem SID": "SID364000604", "BNIP3L mRNA, set 1": 0.0577}
{"gene knocked down": "KCNC1", "PubChem SID": "SID363995917", "BNIP3L mRNA, set 1": 0.201}
{"gene knocked down": "C11orf16", "PubChem SID": "SID364001746", "BNIP3L mRNA, set 1": 0.105}
{"gene knocked down": "PPP2R5D", "PubChem SID": "SID363997069", "BNIP3L mRNA, set 1": 0.0981}
{"gene knocked down": "CNTLN", "PubChem SID": "SID364000485", "BNIP3L mRNA, set 1": 0.0695}
